Test results reported in US20060078535A1, “Anticancer compounds and methods” (The Regents of the University of Michigan, priority 2004, published 2006).
Part of at least one peptide drawing is inferred or uncertain, most often the ends.

Tests used:
Assay type in all cases: in vivo
metastatic disease = system: metastatic disease
Method: Livant et al., “The PHSCN Sequence As An Anti-Invasive For Human Prostate Carcinoma Cells And As An Anti-Tumorigenic And Anti-Metastatic Agent For Rat Prostate Cancer” Cancer Research 60:309-320 (2000). […] In another embodiment, however, PHSCN (SEQ ID NO:86) peptide may also induce apoptosis. Furthermore, thrice-weekly PHSCN (SEQ ID NO:86) peptide intravenous doses (0.1 to 0.5 mg/kg) prevent cancer progression in metastatic ovarian cancer and metastatic prostate cancer patients in the Phase I clinical trial, for over a 6 to 10 month period.

DU145 cells [1] = experiment: DU145 cells injected into Copenhagen rats
DU145 cells [2] = experiment: DU145 cells injected into athymic nude mice

Question: How did the “Progressive Disease (best response)” value (metastatic disease; N = 23) turn out when “Ac-PHSCN-NH2 (N-terminus and C-terminus assumed) [PHSCN, Pro-His-Ser-Cys-Asn]” was run?
Answer: Its value is 1.

Question: And the “patients with stable disease for 2-4 treatment cycles” value (metastatic disease; of 23 patients, a total of 2-4 months)?
Answer: Its value is 4 patients.

Question: And the “patients with stable disease for greater than 4 treatment cycles” value (metastatic disease; of 23 patients, greater than 4 months)?
Answer: The value was 5 patients.

Question: And the “patients who maintained stable disease (best response)” value (metastatic disease; of 23 patients, stable disease defined as at least 2 cycles of treatment)?
Answer: Its value is 9 patients.

Question: What about the “cancer patients in whom metastatic disease was prevented from progressing for many months” value (metastatic disease; systemic therapy at modest doses) of the same substance?
Answer: The value was 38%.

Question: And the “period over which cancer progression was prevented” value (metastatic disease; thrice-weekly intravenous 0.1 to 0.5 mg/kg, metastatic ovarian cancer and metastatic prostate cancer patients)?
Answer: The value was 6 to 10 month.

Question: What about the “antitumorigenic / antimetastatic effect” value (DU145 cells [1]) of the same substance?
Answer: Its value is “effective in blocking tumorigensis and had an antimetastatic effect”.

Question: What about the “antitumorigenic / antimetastatic effect” value (DU145 cells [2]) of the same substance?
Answer: Its value is “only has an antimetastatic effect”.
